Results from article PMC10206803, “Structural insights into DNA recognition by the BEN domain of the transcription factor BANP”.
Where a chain is given by its changes, count along the chain named. The comparison behind a weaker result is the experiment's own reference, which may not be listed here. Where a protein sequence is shown, tags need not be part of it.

Key:
[1] = biological target: T1, BANP BEN N269A (human) (UniProt Q8N9N5); experiment: ITC; conditions: ITC: 150 mM NaCl, 20 mM Tris-HCl pH 7.5, with or without DTT, 25 C, 50-90 uM protein in cell, 1 mM DNA in syringe; recombinant protein; residues 208-347; protein details: His6-SUMO removed by TEV
T1 sequence (looked up): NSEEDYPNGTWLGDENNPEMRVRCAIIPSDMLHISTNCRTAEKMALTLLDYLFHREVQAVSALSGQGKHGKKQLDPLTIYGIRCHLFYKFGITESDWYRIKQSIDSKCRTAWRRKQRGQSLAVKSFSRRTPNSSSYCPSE

[2] = biological target: T2, BANP BEN R320A (human) (UniProt Q8N9N5); experiment: ITC; conditions: ITC: 150 mM NaCl, 20 mM Tris-HCl pH 7.5, with or without DTT, 25 C, 50-90 uM protein in cell, 1 mM DNA in syringe; recombinant protein; residues 208-347; protein details: His6-SUMO removed by TEV
T2 sequence (looked up): T1 sequence (looked up) with A62N, R113A

[3] = biological target: T3, BANP BEN R316A (human) (UniProt Q8N9N5); experiment: ITC; conditions: ITC: 150 mM NaCl, 20 mM Tris-HCl pH 7.5, with or without DTT, 25 C, 50-90 uM protein in cell, 1 mM DNA in syringe; recombinant protein; residues 208-347; protein details: His6-SUMO removed by TEV
T3 sequence (looked up): T1 sequence (looked up) with A62N, R109A

[4] = biological target: T4, BANP BEN S313A (human) (UniProt Q8N9N5); experiment: ITC; conditions: ITC: 150 mM NaCl, 20 mM Tris-HCl pH 7.5, with or without DTT, 25 C, 50-90 uM protein in cell, 1 mM DNA in syringe; recombinant protein; residues 208-347; protein details: His6-SUMO removed by TEV
T4 sequence (looked up): T1 sequence (looked up) with A62N, S106A

[5] = biological target: T5, BEND6 BEN N261A (human) (UniProt Q5SZJ8); experiment: fluorescence polarization; conditions: FP: 20 mM Tris-HCl pH 7.5, 150 mM NaCl, 1 mM DTT, 0.01% Triton X-100, 40 nM DNA; recombinant protein; residues 170-271; protein details: His6 removed by TEV; label: 5' FAM
T5 sequence (looked up): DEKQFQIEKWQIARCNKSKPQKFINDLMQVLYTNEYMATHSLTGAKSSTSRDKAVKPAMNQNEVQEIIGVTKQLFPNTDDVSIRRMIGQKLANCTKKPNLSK

[6] = biological target: T6, BEND6 BEN R254A (human) (UniProt Q5SZJ8); experiment: fluorescence polarization; conditions: FP: 20 mM Tris-HCl pH 7.5, 150 mM NaCl, 1 mM DTT, 0.01% Triton X-100, 40 nM DNA; recombinant protein; residues 170-271; protein details: His6 removed by TEV; label: 5' FAM
T6 sequence (looked up): T5 sequence (looked up) with R85A, A92N

[7] = biological target: T7, BEND6 BEN K265A (human) (UniProt Q5SZJ8); experiment: fluorescence polarization; conditions: FP: 20 mM Tris-HCl pH 7.5, 150 mM NaCl, 1 mM DTT, 0.01% Triton X-100, 40 nM DNA; recombinant protein; residues 170-271; protein details: His6 removed by TEV; label: 5' FAM
T7 sequence (looked up): T5 sequence (looked up) with A92N, K96A

Measured: binding result

CTCTCGCGAGAG (double strand) [CGCG DNA]
binds more weakly: [1] | [2] | [3] | [4]

CTCTCGCGAGAG (double strand) [FAM-CGCG DNA]
binds more weakly: [5] | [6] | [7]
